No constants are given. Whether binding was seen depends on the method and setting. Binding calls can cover weak binding; strength is not graded here. Tags and fused reporters may be left off the sequences shown.
Target: MOM2, yeast two-hybrid fusion (Arabidopsis thaliana)
Assay: two-hybrid; Gal4-BD (pGBKT7-GW) and Gal4-AD (pGADT7-GW) fusions co-transformed into yeast AH109; growth on SD-TLH with 5 mM 3AT after 2-3 days

B1: PIAL2, yeast two-hybrid fusion (protein, UniProt F4JYG0 1-760)
chain: MSTAAAARPVAGTGLREKTAASLVNSFRLASVTQRLRYHIQDGAKVDPKEFQICCISFAKGIDFAIANNDIPKKVEEFPWLLKQLCRHGTDVYTKTALMVLMISVKHACHLGWFSDSESQELIALADEIRTCFGSSGSTSPGIKSPGSTFSQIMERFYPFVKLGHVLVSFEVKAGYTMLAHDFYISKNMPHSLQEKIRLFVAQTDNIDTSACISNPPEVSFLLNGKGVEKRVNIAMDTGPQLPTNVTAQLKYGTNLLQVMGNFKGNYIIIIAFTGLVVPPEKPVLKDYLQSGVIEASPDSDIIEGPSRVSLSCPISRKRIKLPVKGQLCKHLQCFDFSNYVHINMRNPTWRCPHCNQPVCYPDIRLDQNMAKILKDVEHNAADVIIDAGGTWKVTKNTGETPEPVREIIHDLEDPMSLLNSGPVVFDLTGDDDAELEVFGDNKVEDRKPCMSDAQGQSNNNNTNKHPSNDDYSSIFDISDVIALDPEILSALGNTAPQPHQASNTGTGQQYSNLSQIPMSIDPMPVPVPFSQTPSPRDRPATTSTVFTIPNPSPQYSQVHASPVTPTGTYLGRTTSPRWNQTYQSQAPPMTTPYTSRKVSVPVTSQSPANVSSFVQSQHVPRVLSQPNNYGVRGLTSSHASTSRQHPSGPTVQSVSRLSDLVDVDLTVPDTSNWRPRMRGSLVPGSHSTALDHMIIRPSQQSQTSTRLNSSQPVQTPSVQTSQAQSPFTTAAYRTETVLGNRNHPVPAPPGIVRPTGPTS
For B1, the binding was “binds”.
